Assay results taken from PMC5996148.
“And” between values parts separate entries of the source, which are not always exact repeats. Equal entries are not always repeated. This is one part of the list. For some assays here: The source does not settle which construct or isoform was used.

Assays:
Test in all cases: protein microarray (ProtoArray v5.0), streptavidin-Alexa Fluor 647
Conditions in all cases: 3'-biotin; 20 mM Tris (pH 7.5), 5 mM MgCl2, 100 mM KCl, 0.1% Tween-20, A/T-rich and random oligonucleotide blockers; temperature not stated; high values mean tight binding
[1] = system: STARD3NL (human)
[2] = system: STARD5 (human)
[3] = system: STARD7 (human)
[4] = target: T1, STAT5B (UniProt P51692)
T1 sequence: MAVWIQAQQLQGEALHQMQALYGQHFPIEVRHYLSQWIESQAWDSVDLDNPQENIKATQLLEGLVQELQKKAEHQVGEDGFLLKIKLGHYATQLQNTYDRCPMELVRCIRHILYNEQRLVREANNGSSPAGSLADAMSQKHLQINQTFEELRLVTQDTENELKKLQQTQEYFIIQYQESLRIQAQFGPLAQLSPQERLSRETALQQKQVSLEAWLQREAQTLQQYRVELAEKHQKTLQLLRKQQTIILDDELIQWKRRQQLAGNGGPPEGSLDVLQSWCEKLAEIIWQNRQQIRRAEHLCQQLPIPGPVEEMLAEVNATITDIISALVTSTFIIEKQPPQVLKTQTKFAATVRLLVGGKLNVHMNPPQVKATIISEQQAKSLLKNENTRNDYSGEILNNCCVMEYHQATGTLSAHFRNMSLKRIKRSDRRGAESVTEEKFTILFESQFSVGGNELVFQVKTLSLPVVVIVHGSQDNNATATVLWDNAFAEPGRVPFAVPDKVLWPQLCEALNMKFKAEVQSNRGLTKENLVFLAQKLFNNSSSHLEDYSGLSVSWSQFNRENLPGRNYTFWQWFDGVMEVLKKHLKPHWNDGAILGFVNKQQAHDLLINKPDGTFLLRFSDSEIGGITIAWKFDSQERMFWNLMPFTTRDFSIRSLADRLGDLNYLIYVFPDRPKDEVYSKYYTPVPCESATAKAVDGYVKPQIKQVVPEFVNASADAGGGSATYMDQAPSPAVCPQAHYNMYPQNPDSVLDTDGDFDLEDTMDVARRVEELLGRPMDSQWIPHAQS

[5] = system: STCH (human)
[6] = system: STEAP3 (human)
[7] = system: STEAP4 (human)
[8] = system: STIP1 homology and U box-containing protein 1 (human)
[9] = system: STK10 (human)
[10] = system: STK16 (human)
[11] = system: STK40 (human)
[12] = system: STMN2 (human)
[13] = system: STOML2 (human)
[14] = system: STOML3 (human)
[15] = system: STON1 (human)
[16] = system: STRA13 (human)
[17] = system: STX18 (human)
[18] = system: STX3 (human)
[19] = system: STX7 (human)
[20] = system: STX8 (human)

GGGAGGCTGAGGCAGG [G4-1 biotinylated (PQS2)]
binding signal [1]: -0.293 z-score | binding signal [2]: -0.341 z-score | binding signal [3]: -0.362 z-score | binding signal [4]: -0.309 z-score | binding signal [5]: -0.354 z-score | binding signal [6]: -0.312 z-score | binding signal [7]: -0.327 z-score | binding signal [8]: -0.324 z-score | binding signal [9]: -0.33 z-score | binding signal [10]: -0.336 z-score | binding signal [11]: -0.339 z-score | binding signal [12]: -0.284 z-score | binding signal [13]: -0.244 z-score and -0.341 z-score | binding signal [14]: -0.298 z-score | binding signal [15]: -0.336 z-score | binding signal [16]: -0.31 z-score | binding signal [17]: -0.338 z-score | binding signal [18]: -0.329 z-score | binding signal [19]: -0.312 z-score | binding signal [20]: -0.291 z-score
